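A cell-based luciferase cGMP reporter in human embryonic kidney cells measures how much compounds reduce the agonist-driven Npr1 signal, read 20 min after adding agonist. Compounds were tested as a 1:3 dilution series, mostly reaching a top level of 9.22 µM. The value is the fitted half-maximal inhibitory potency, so a lower number means a more potent blocker. Calls come from the curve class and a derived score; compounds are filed inconclusive (score 10) when the pre-read curve class is anything other than 4.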

By UniProt entry, the sequences of proteins in these tests, tags left out.
UniProt P16066, whole entry, target on record: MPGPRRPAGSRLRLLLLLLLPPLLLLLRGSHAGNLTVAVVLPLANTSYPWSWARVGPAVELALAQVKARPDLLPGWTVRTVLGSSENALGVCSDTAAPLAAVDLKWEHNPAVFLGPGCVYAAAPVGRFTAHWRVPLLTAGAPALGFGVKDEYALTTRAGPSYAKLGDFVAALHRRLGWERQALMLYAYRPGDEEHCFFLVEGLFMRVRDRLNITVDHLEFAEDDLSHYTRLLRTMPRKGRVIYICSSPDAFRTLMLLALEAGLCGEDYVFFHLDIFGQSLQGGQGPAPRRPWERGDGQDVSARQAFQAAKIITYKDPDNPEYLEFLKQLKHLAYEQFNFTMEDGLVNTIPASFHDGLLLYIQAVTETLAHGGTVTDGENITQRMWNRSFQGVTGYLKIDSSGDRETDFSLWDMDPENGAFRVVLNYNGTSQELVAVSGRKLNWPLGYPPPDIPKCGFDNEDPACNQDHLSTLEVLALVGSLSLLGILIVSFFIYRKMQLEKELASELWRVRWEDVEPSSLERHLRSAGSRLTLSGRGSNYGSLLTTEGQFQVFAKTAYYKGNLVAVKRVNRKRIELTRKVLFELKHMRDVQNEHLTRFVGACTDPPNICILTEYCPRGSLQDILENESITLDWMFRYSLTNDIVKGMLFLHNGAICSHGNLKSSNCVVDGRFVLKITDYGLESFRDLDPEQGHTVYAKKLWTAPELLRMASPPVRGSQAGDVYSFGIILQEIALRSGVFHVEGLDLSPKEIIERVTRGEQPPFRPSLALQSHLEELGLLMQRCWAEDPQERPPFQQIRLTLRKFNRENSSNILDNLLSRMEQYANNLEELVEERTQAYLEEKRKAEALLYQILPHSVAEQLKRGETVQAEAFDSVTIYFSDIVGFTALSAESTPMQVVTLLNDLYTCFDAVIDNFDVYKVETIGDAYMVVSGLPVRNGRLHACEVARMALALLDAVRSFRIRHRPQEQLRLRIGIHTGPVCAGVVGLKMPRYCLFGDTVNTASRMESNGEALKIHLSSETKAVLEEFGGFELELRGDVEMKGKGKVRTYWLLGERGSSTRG

Values are in µM. Every entry below has the call inconclusive. Only part of the assay is shown, chiefly results filed as inconclusive. A potency from a partial, single-point or poor curve is only a rough figure. Some entries filed as inconclusive have a full curve. Activity scores are not listed here.

Compound,potency (µM),curve as filed
C[C@@H]1C[C@](C)(C(=O)c2ccc3ccccc3c2)C=C1c1ccc2ccccc2c1,0.0841,"inhibitor, single point"
O=C(C=Cc1ccc2c(c1)OCO2)c1ccccc1,5.309,"inhibitor, single point"
COc1ccc(C2=CC3=C(Br)C(=O)C(C)(OC(=O)c4ccco4)C(=O)C3=CO2)cc1 (stereo not given),1.189,"inhibitor, single point"
C=CCOC(=O)N[C@@H](c1ccc(Br)cc1)C(C(C)=O)C(C)=O,0.0944,"inhibitor, single point"
COc1cc2c(cc1OC)[C@@H]1O[C@](c3ccsc3)(C2)OC2=C1C(=O)OC1(CCCCC1)C2,0.1059,"inhibitor, partial curve"
Cc1ccccc1Nc1oc(-c2ccccc2)nc1-c1ccc(C(F)(F)F)cc1,0.0841,"inhibitor, single point"
CCCCCCC(=O)Cc1cc(OC)c(OC)cc1C=C(C(=O)OCC)C(=O)OCC,0.1189,"inhibitor, single point"
O=C1C=CC2(OCCCO2)C(Br)=C1CO,2.986,"inhibitor, partial curve"
CC1(OC(=O)c2ccc(Cl)nc2)C(=O)C=C2C=C(C3CC3)OC=C2C1=O (stereo not given),0.1059,"inhibitor, single point"
COCCN1C(=O)N[C@@H](c2cccc(C(F)(F)F)c2)[C@@H](C(=O)OC)[C@H]1C,0.1334,"inhibitor, single point"
COc1ccc2c(c1)O[C@@H](c1cccc(C(F)(F)F)c1)[C@H](OC(=O)N[C@H]1CCCc3ccccc31)C2=O,1.189,"inhibitor, single point"
COc1ccc(-c2nc3c(c4c2C[C@H](c2ccccc2)OC4)CN(C(=O)C2CC2)CC3)c(C)c1,0.1059,"inhibitor, single point"
CC(=O)OC[C@H]1O[C@H](C#Cc2ccc(C)cc2C)C=C[C@H]1OC(C)=O,3.35,"inhibitor, single point"
CCN1C(=NCc2cc(OC)c(OC)c(OC)c2)N[C@@H](c2ccccc2)[C@H](C(=O)OC)[C@H]1C,1.189,"inhibitor, single point"
COc1ccc([C@]23Cc4cc(C#N)ccc4[C@H](O2)c2c(cc(-c4ccccc4)oc2=O)O3)cc1,0.0944,"inhibitor, single point"
CCN1C(=O)NC(c2ccco2)C(C(=O)OC)=C1C (stereo not given),5.309,"inhibitor, single point"
COC(=O)C1=C(C(=O)OC)[C@@H]2N(Cc3ccccc3)c3ccccc3[C@@]23CCC(=O)N(CC2CCCCC2)C3=N1,0.6684,"inhibitor, partial curve, poor fit"
C=C(C(C)=O)C(O)C=Cc1ccco1 (stereo not given),5.309,"inhibitor, single point"
CCC(=O)OC1(C)C(=O)C=C2C=C(CCCCNC(=O)OC(C)(C)C)OC=C2C1=O (stereo not given),1.189,"inhibitor, single point"
COC(=O)CCCC1=CC2=CC(=O)C(C)(OC(=O)c3cccs3)C(=O)C2=CN1c1ccccc1 (stereo not given),0.1189,"inhibitor, single point"
COC(=O)C1(C(=O)OC)CC(CO)C(=O)[C@@H]1c1ccccc1 (stereo not given in full),0.1334,"inhibitor, single point"
COC(=O)N[C@@H](c1cccc(C)c1)[C@]1(C(C)=O)CCCC1=O,0.1189,"inhibitor, single point"
COc1ccc(C=CC2=CC3(C)CC2(C)C(c2ccc(OC)cc2)CC3=O)cc1 (stereo not given),0.075,"inhibitor, partial curve, poor fit"
COC(=O)N1CCc2cc(OC)c(OC)cc2C1Cc1ccc(OC)cc1 (stereo not given),0.0668,"inhibitor, partial curve, poor fit"
CCCCc1nc2c(c3c1C[C@H](C)OC3)CN(C(=O)Cc1cccc(OC)c1)CC2,5.309,"inhibitor, single point"
COC(=O)[C@@]1(C=C2c3ccc(F)cc3[C@@H](OC)[C@@H]2C)[C@@H]2CC=C[C@@H]21,0.0944,"inhibitor, single point"
CCOC(=O)C=CCCCC=CC(=O)c1ccccc1,5.309,"inhibitor, single point"
C[C@H]1Cc2c(COc3ccccc3)nc3c(c2CO1)CN(C(=O)Nc1cccc(C#N)c1)CC3,1.189,"inhibitor, single point"
CCCNC(=O)N1C2=NC(C(=O)OC)=C(C(=O)OC)[C@@H]3N(C)c4ccccc4[C@]23C[C@H]1C(=O)OC,1.189,"inhibitor, single point"
CC[C@H](C)[C@@H](NC(=O)O[C@@H]1C(=O)c2cc(Br)ccc2O[C@H]1c1cccc(OC)c1)C(=O)OC,1.189,"inhibitor, single point"
CC(C)OC(=O)CC(NC(=O)OC(C)(C)C)c1ccccc1 (stereo not given),0.1496,"inhibitor, single point"
CCCCC1=CC2=C(c3ccco3)C(=O)C(C)(OC(=O)c3ccc(OC)cc3)C(=O)C2=CN1CCCCO (stereo not given),0.0944,"inhibitor, single point"
COC(=O)C1=C(C)N(Cc2ccccc2)C(=S)NC1c1cccc(F)c1 (stereo not given),0.1496,"inhibitor, single point"
COC(=O)CCCC1=CC2=C(c3ccccc3)C(=O)C(C)(OC(=O)C3CCCC3)C(=O)C2=CN1C(CO)CO (stereo not given),0.1059,"inhibitor, single point"
COC(=O)CC1c2ccccc2C=C(C)N1C(=O)OC (stereo not given),0.0944,"inhibitor, single point"
CCCC[C@]12Cc3c(ccc4ccccc34)[C@H](O1)C1=C(O2)C(=O)c2ccccc2C1=O,0.0668,"inhibitor, partial curve, poor fit"
Cc1ccc(S(=O)(=O)N[C@@H]2COC(=O)[C@@H](C)COC(=O)CC=C[C@H]2C)cc1,6.684,"inhibitor, single point"
COC(=O)[C@]1(C)C=C[C@@H](C)[C@H](c2ccccc2Br)N1C(=O)C(F)(F)F,0.1334,"inhibitor, single point"
COc1ccc(-c2nc(-c3ccccc3)oc2Nc2ccccc2C)cc1,0.1334,"inhibitor, single point"
COc1ccc(NC(=O)N2CCc3nc(COc4ccccc4)c4c(c3C2)CO[C@@H](C)C4)cc1,0.1679,"inhibitor, full curve"
Nc1ccccc1C(=O)C=Cc1ccc2c(c1)OCO2,4.732,"inhibitor, single point"
COC(=O)CC=C[C@@H](C)[C@H](OC)c1cc(F)ccc1Br,0.0841,"inhibitor, partial curve, poor fit"
COC(=O)[C@H](Cc1ccccc1)NC(=O)O[C@@H]1C(=O)c2cc(OC)ccc2O[C@H]1c1cccc(OC)c1,1.189,"inhibitor, single point"
COC(=O)[C@@H]1[C@H](CCc2ccccc2)NC(=O)N(Cc2ccccc2)[C@H]1C,0.2114,"inhibitor, full curve"
COc1ccc(C2=CC3=C(Br)C(=O)C(C)(OC(=O)c4cnc5ccccc5n4)C(=O)C3=CO2)cc1 (stereo not given),0.0841,"inhibitor, single point"
CC1(OC(=O)C2CCCC2)C(=O)C=C2C=C(c3ccsc3)N(CCCCO)C=C2C1=O (stereo not given),3.759,"inhibitor, single point"
CC1(C)O[C@@H](C(O)(c2cc(F)c(F)c(F)c2)c2cc(F)c(F)c(F)c2)[C@H](C(O)(c2cc(F)c(F)c(F)c2)c2cc(F)c(F)c(F)c2)O1,0.1496,"inhibitor, single point"
COC(=O)C1=C(C(=O)OC)[C@@H]2N(Cc3ccccc3)c3ccccc3[C@@]23C[C@@H](C(=O)OC)N(C(=O)NCCBr)C3=N1,1.189,"inhibitor, single point"
COC(=O)CCCC1=CC2=C(c3ccccc3)C(=O)C(C)(OC(=O)C3CCCC3)C(=O)C2=CN1CCc1ccccn1 (stereo not given),0.1334,"inhibitor, single point"
CCOC(=O)OC[C@H]1O[C@H](C#Cc2ccccc2)C=C[C@H]1OC(=O)OCC,0.9441,"inhibitor, partial curve"
CC(C)(C)OC(=O)NCCCC1=CC2=CC(=O)C(C)(OC(=O)c3cccs3)C(=O)C2=CO1 (stereo not given),1.189,"inhibitor, single point"
COc1ccc(-c2nc(-c3ccccc3)c(Nc3ccc4ccccc4c3)o2)cc1,5.309,"inhibitor, single point"

Once more, the final 4:

* COC(=O)CCCC1=CC2=C(c3ccccc3)C(=O)C(C)(OC(=O)C3CCCC3)C(=O)C2=CN1CCc1ccccn1 (stereo not given) | potency 0.1334 µM (inhibitor, single point)
* CCOC(=O)OC[C@H]1O[C@H](C#Cc2ccccc2)C=C[C@H]1OC(=O)OCC | potency 0.9441 µM (inhibitor, partial curve)
* CC(C)(C)OC(=O)NCCCC1=CC2=CC(=O)C(C)(OC(=O)c3cccs3)C(=O)C2=CO1 (stereo not given) | potency 1.189 µM (inhibitor, single point)
* COc1ccc(-c2nc(-c3ccccc3)c(Nc3ccc4ccccc4c3)o2)cc1 | potency 5.309 µM (inhibitor, single point)

Data taken from PubChem BioAssay AID1347052, deposited by NCATS (2019).